# Test results taken from patent US8481032B2, “Lipocalin-2 antibodies for methods of treatment” (The University of Hong Kong, priority 2006, dated 2013).
# At least one compound was matched to its structure with a doubt left.
# How the values were obtained:
# lipocalin-2 = assay: Sandwich ELISA of serum lipocalin-2 in db/db mice treated with rosiglitazone; type: in vivo, mouse; details: rosiglitazone 1 mg/kg daily for 2 weeks
# lipocalin-2 gene = assay: Real-time quantitative PCR of lipocalin-2 mRNA in tissues of db/db mice treated with rosiglitazone; type: in vivo, mouse; details: rosiglitazone 1 mg/kg daily intra-gastric gavage for 2 weeks, versus db/db mice without treatment
structure (smiles),measurement,setting,value
CN(CCOc1ccc(CC2SC(=O)NC2=O)cc1)c1ccccn1 (stereo not drawn) [rosiglitazone],circulating lipocalin-2 concentrations,lipocalin-2,decreased
same,lipocalin-2 mRNA expression in adipose tissue,lipocalin-2 gene; epididymal fat pads,modest but significant decrease
same,lipocalin-2 mRNA expression in liver,lipocalin-2 gene; real-time PCR normalized against 18S RNA,marked reduction
